The values that follow come from paper PMC7486400, “Allosteric coupling between α-rings of the 20S proteasome” (Nature Communications, 2020).

Protein sequences, listed by entry. Tags and fused reporters are not part of them. Lines headed by an entry give the natural chain unless they say otherwise; changes in a name come on top.
UniProt P28061: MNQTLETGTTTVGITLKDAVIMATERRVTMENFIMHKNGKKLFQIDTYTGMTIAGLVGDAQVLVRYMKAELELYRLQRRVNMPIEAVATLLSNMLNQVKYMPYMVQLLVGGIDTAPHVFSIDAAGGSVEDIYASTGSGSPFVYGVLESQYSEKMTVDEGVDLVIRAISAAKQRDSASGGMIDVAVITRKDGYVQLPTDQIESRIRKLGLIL

Results are given in words; binding and its absence hold for the method and conditions named. Some results given as binding are weak or reduced against the parent protein; the word gives no strength.

The target in experiment [1] is Thermoplasma acidophilium 20S proteasome α-subunit, wild type, full-length (Thermoplasma acidophilium) (UniProt P25156). Kind of experiment: cryo-EM structure; single-particle cryo-EM of asymmetric CP with one activator bound, with or without substrate (LFP, GFP-ssrA), C7 symmetry applied, about 3 Å; PAN complexes with nucleotide; both purified.
Experiment [2] addresses T1, in vitro assembled asymmetric 20S core particle used with PAN (one α-ring R28L, one α-ring K66A) (Thermoplasma acidophilium) (UniProt P25156+P28061). The experiment is described as above.
In experiment [3] the target is Thermoplasma acidophilium 20S proteasome α-subunit R28L (Thermoplasma acidophilium) (UniProt P25156). The experiment is described as above.
Experiment [4] has as its target T1, in vitro assembled asymmetric 20S core particle used with PAN (one α-ring R28L, one α-ring K66A) (Thermoplasma acidophilium). The experiment in a line: negative stain EM; in vitro assembled CP incubated with excess activator (16 nM CP with 112 nM PA26PANc; PAN in excess, 4:1 PAN:CP with nucleotide); Supplementary Fig. 3; both purified.
In experiment [5] the target is in vitro assembled symmetric 20S core particle used with PAN (α-rings with R28L) (Thermoplasma acidophilium) (UniProt P25156+P28061). The experiment is described as above.

B1: Thermoplasma acidophilium 20S proteasome α-subunit, wild type, full-length (natural protein, UniProt P25156 1-233, looked up)
chain: MQQGQMAYDRAITVFSPDGRLFQVEYAREAVKKGSTALGMKFANGVLLISDKKVRSRLIEQNSIEKIQLIDDYVAAVTSGLVADARVLVDFARISAQQEKVTYGSLVNIENLVKRVADQMQQYTQYGGVRPYGVSLIFAGIDQIGPRLFDCDPAGTINEYKATAIGSGKDAVVSFLEREYKENLPEKEAVTLGIKALKSSLEEGEELKAPEIASITVGNKYRIYDQEEVKKFL
notes: 20S proteasome α-subunit of Thermoplasma acidophilum, full-length; For the asymmetric CP the wild-type ring was co-expressed from α-His and α-MBP (both C-terminal, TEV site before the tag); All tags were removed after final purification, so the subunit is untagged in the EM samples; All these forms are kept as one molecule here; also called αWT; αwt
On to B1, for which the binding result in experiment [1] is “binds”.

B2: PAN (Proteasomal Activator Nucleotidase) ATPase from Methanococcus jannaschii, wild type (enzyme, UniProt Q58576 1-430)
chain: MVFEEFISTELKKEKKAFTEEFKEEKEINDNSNLKNDLLKEELQEKARIAELESRILKLELEKKELERENLQLMKENEILRRELDRMRVPPLIVGTVVDKVGERKVVVKSSTGPSFLVNVSHFVNPDDLAPGKRVCLNQQTLTVVDVLPENKDYRAKAMEVDERPNVRYEDIGGLEKQMQEIREVVELPLKHPELFEKVGIEPPKGILLYGPPGTGKTLLAKAVATETNATFIRVVGSELVKKFIGEGASLVKDIFKLAKEKAPSIIFIDEIDAIAAKRTDALTGGDREVQRTLMQLLAEMDGFDARGDVKIIGATNRPDILDPAILRPGRFDRIIEVPAPDEKGRLEILKIHTRKMNLAEDVNLEEIAKMTEGCVGAELKAICTEAGMNAIRELRDYVTMDDFRKAVEKIMEKKKVKVKEPAHLDVLYR
On to B2, for which the binding entry in experiment [2], in experiment [3], in experiment [4] and in experiment [5] was “binds” throughout.
